Measurements published in publication PMC12431657, “Discovery and mechanistic insights of dibenzoylmethane as a broad spectrum inhibitor of coronavirus” (PLOS Pathogens, 2025).
Where a name gives a salt, the structure may show the parent alone. Read-outs that look alike come from different tables or passages of the source. The campaign covered roughly 3,300 compounds. About 95 (3%) showed an effect of 50% or more. The list shows a part of the results.

Tested on: HCoV-229E
Design: species or system Huh-7; HTS, protection from HCoV-229E induced cell death, luminescent cell viability (CellCounting-Lite 2.0), inhibition rate
Settings: 24 h post infection, 1 h compound pre-incubation, 10 µM, inhibitor

| SMILES | 229E Inhibition rate | 229E Inhibition rate (229E Inhibition rate, 24 h) |
| --- | --- | --- |
| O[C@H]1CCN2Cc3ccccc3N=C12 [Vasicine (hydrochloride)] | 10.9% |  |
| C[C@H]1[C@H](C)CC[C@]2(C(=O)O[C@@H]3O[C@H](CO[C@@H]4O[C@H](CO)[C@@H](O[C@@H]5O[C@@H](C)[C@H](O)[C@@H](O)[C@H]5O)[C@H](O)[C@H]4O)[C@@H](O)[C@H](O)[C@H]3O)CC[C@]3(C)C(=CC[C@@H]4[C@@]5(C)C[C@@H](O)[C@H](O)[C@@](C)(CO)[C@@H]5[C@H](O)C[C@]43C)[C@H]12 [Madecassoside] | 48.9% |  |
| COc1cc2c(cc1OC)-c1cc3ccc(OC)c(OC)c3c[n+]1CC2 [Palmatine (hydroxide)] |  | 0% |
| COc1cc(CCC(O)CCCCc2ccccc2)ccc1O (stereo not drawn) [Oxyphyllacinol] | 0% |  |
| Cn1c(=O)[nH]c2ncn(C)c2c1=O [Paraxanthine] | 35.2% |  |
| CC(=O)Nc1ccn([C@@H]2O[C@H](COP(=O)(O)OP(=O)(O)OP(=O)(O)O)[C@@H](O)[C@H]2O)c(=O)n1 [N4-Acetylcytidine triphosphate (sodium)] | 10.2% |  |
| C/C=C(\C)C(=O)OC1c2c(ccc3ccc(=O)oc23)OC(C)(C)C1OC(=O)/C(C)=C/C (stereo not drawn) [Praeruptorin B] | 53.9% |  |
| C=CCSSSCC=C [Diallyl Trisulfide] | 13.2% |  |
| CC(=O)O[C@@H]1CC[C@@]2(C)[C@@H](CC[C@]3(C)[C@@H]2CC=C2[C@@H]4[C@@H](C)[C@H](C)CC[C@]4(C)CC[C@]23C)[C@@]1(C)C(=O)O [3-Acetyl-beta-boswellic acid] | 8.3% |  |
| COc1cc(C2Oc3ccc([C@H]4Oc5cc(O)cc(O)c5C(=O)[C@@H]4O)cc3OC2CO)ccc1O (stereo partly drawn) [Isosilybin] | 0% |  |
| COc1ccc(-c2cc(=S)ss2)cc1 [Anethole trithione] | 32.8% |  |
| C=C1CCOC1=O [Tulipalin A] | 15.3% |  |
| CC(CC(=O)CC(C)(O)[C@H]1CC(=O)[C@@]2(C)C3=C(C(=O)C[C@]12C)[C@@]1(C)CCC(=O)C(C)(C)[C@@H]1C[C@@H]3O)C(=O)O (stereo partly drawn) [Ganoderic acid N] | 14.9% |  |
| COc1cc(CNC(=O)CCCCCCCC(C)C)ccc1O [Homodihydrocapsaicin I] | 33% |  |
| C=CCSC[C@H](N)C(=O)O [S-Allyl-L-cysteine] | 13.2% |  |
| O=c1cc(CO)occ1O [Kojic acid] | 0% |  |
| COc1ccc(-c2coc3c([C@@H]4O[C@H](CO)[C@@H](O)[C@H](O)[C@H]4O)c(O)ccc3c2=O)cc1 [4'-Methoxypuerarin] | 9.3% |  |
| NC(=O)[C@@H](N)Cc1c[nH]c2ccccc12 [H-Trp-NH2.HCl] | 38.8% |  |
| C1=C2CCCN[C@H]2[C@@H]2C[C@H]1[C@H]1CCCCN1C2 [Aloperine] | 8.6% |  |
| C[C@]12C[C@@H](O)[C@@H]3C[C@@]1(O[C@@H]1O[C@H](CO)[C@@H](O)[C@H](O)[C@H]1O)[C@]3(COC(=O)c1ccccc1)C(=O)O2 [Albiflorin] | 13.1% |  |
| O=C(O)CCCC(=O)O [Glutaric acid] | 19.3% |  |
| CC[C@H]1CN2CC[C@]3(C(=O)Nc4ccccc43)[C@@H]2C[C@@H]1/C(=C\OC)C(=O)OC [Rhynchophylline] | 10.8% |  |
| CC1(C)C=Cc2c(ccc(C(=O)/C=C/c3ccc(O)cc3)c2O)O1 [Isobavachromene] |  | 41.7% |
| NCCCNCCCCNCCCN [Spermine] | 12.9% |  |
| C[C@H]1O[C@@H](O[C@H]2CC[C@@]3(C)[C@@H](CC[C@]4(C)[C@@H]3C=CC3=C5CC(C)(C)CC[C@]5(CO)[C@H](O)C[C@]34C)[C@]2(C)CO)[C@H](O)[C@@H](O[C@@H]2O[C@H](CO)[C@@H](O)[C@H](O)[C@H]2O)[C@H]1O [Saikosaponin B2] | 0% |  |
| COc1ccc(C(=O)O)c(O)c1 [2-Hydroxy-4-methoxybenzoic acid] | 14% |  |

| SMILES | 229E Inhibition rate | 229E Inhibition rate (229E Inhibition rate, 24 h) |
| --- | --- | --- |
| COc1ccc(-c2coc3cc(OC)ccc3c2=O)cc1 [4',7-Dimethoxyisoflavone] | 12.4% |  |
| CSCC[C@H](NC(=O)[C@H](CC(C)C)NC(=O)CNC(=O)[C@H](Cc1ccccc1)NC(=O)[C@H](Cc1ccccc1)NC(=O)[C@H](CCC(N)=O)NC(=O)[C@H](CCC(N)=O)NC(=O)[C@@H]1CCCN1C(=O)[C@H](CCCCN)NC(=O)[C@@H]1CCCN1C(=O)[C@@H](N)CCCN=C(N)N)C(N)=O [Substance P] | 0% |  |
| O=C(O[C@@H]1Cc2c(O)cc(O)cc2O[C@@H]1c1cc(=O)c(O)c2c(O)c(O)cc([C@H]3Oc4cc(O)cc(O)c4C[C@H]3O)c2c1)c1cc(O)c(O)c(O)c1 [Theaflavin-3'-gallate] |  | 18.5% |
| CC(C)=CCC/C(C)=C/CC/C(C)=C/CC/C=C(\C)CC/C=C(\C)CCC=C(C)C [Squalene] | 15.7% |  |
| O=C(O)Cc1c[nH]c2ccc(O)cc12 [5-Hydroxyindole-3-acetic acid] | 11.8% |  |
| C[C@@H]1O[C@@H](O[C@H]2[C@H](O)[C@@H](O)[C@H](O[C@H]3CC[C@]4(C)[C@H]5C=C[C@]67OC[C@@]8(CCC(C)(C)C[C@H]86)[C@@H](O)C[C@@]7(C)[C@]5(C)CC[C@H]4C3(C)C)O[C@@H]2CO[C@@H]2O[C@H](CO)[C@@H](O)[C@H](O)[C@H]2O)[C@H](O)[C@H](O)[C@H]1O [Saikosaponin C] | 0% |  |
| CC(=O)O[C@@H]1C[C@]23C4=CC[C@@]5(C)[C@H](C(=O)O)[C@@](C)([C@H](C)C(C)C)CC[C@]5(C)[C@H]4CC[C@H]2[C@@](C)(COC3O)[C@H]1O[C@@H]1O[C@H](CO)[C@@H](O)[C@H](O)[C@H]1O (stereo partly drawn) [Enfumafungin] | 11.3% |  |
| N[C@@H](CO)C(=O)O [L-Serine] | 11.3% |  |
| CC(C(=O)O)c1ccccc1 (stereo not drawn) [2-Phenylpropionic acid] | 18.5% |  |
| C[C@@H]1O[C@@H](OC[C@H]2O[C@@H](OCCc3ccc(O)c(O)c3)[C@H](O)[C@@H](O[C@@H]3O[C@@H](C)[C@H](O)[C@@H](O)[C@H]3O)[C@@H]2OC(=O)/C=C/c2ccc(O)c(O)c2)[C@H](O)[C@H](O)[C@H]1O [Poliumoside] | 6.3% |  |
| O=C(O)Cc1c[nH]c2ccccc12 [3-Indoleacetic acid] | 5.1% |  |
| CC(=O)O[C@H]1C(=O)[C@@]2(C)[C@H]([C@H](OC(=O)c3ccccc3)[C@]3(O)C[C@H](OC(=O)[C@H](O)[C@@H](NC(=O)c4ccccc4)c4ccccc4)C(C)=C1C3(C)C)[C@]1(OC(C)=O)CO[C@@H]1C[C@@H]2O [Paclitaxel] |  | 31% |
| CC1=CC(=O)CC(C)(C)C1(O)/C=C/C(C)=C\C(=O)O (racemic) [(±)-Abscisic acid] |  | 8.9% |
| CC1(C)[C@@H](O[C@H]2O[C@H](C(=O)O)[C@@H](O)[C@H](O)[C@H]2O[C@@H]2O[C@H](C(=O)O)[C@@H](O)[C@H](O)[C@H]2O)CC[C@]2(C)[C@H]3C(=O)C=C4[C@@H]5C[C@@](C)(C(=O)O)CC[C@]5(C)CC[C@@]4(C)[C@]3(C)CC[C@@H]12 [Glycyrrhizic acid] |  | 43% |
| CCCCCCC/C=C\C(=O)O [(Z)-2-Decenoic acid] | 19.8% |  |
| O=Cc1ccccc1O[C@@H]1O[C@H](CO)[C@@H](O)[C@H](O)[C@H]1O [Helicin] | 12.3% |  |
| CCC(C)(C)C(=O)O[C@H]1C[C@@H](C)C=C2C=C[C@H](C)[C@H](CC[C@@H](O)C[C@@H](O)CC(=O)O)[C@H]21 [Simvastatin acid (ammonium)] | 14.1% |  |
| N[C@H]1[C@H](O[C@H]2[C@H](O)[C@@H](N)[C@H](O[C@H]3[C@H](O)[C@@H](N)[C@H](O[C@@H]([C@H](O)[C@@H](N)C=O)[C@H](O)CO)O[C@@H]3CO)O[C@@H]2CO)O[C@H](CO)[C@@H](O)[C@@H]1O [Chitotetraose (tetrahydrochloride)] | 0% |  |
| CCCCCC/C=C\CCCCCCCC(=O)O [Palmitoleic acid] | 13% |  |
| O=C1/C(=C/c2ccc(O)c(O)c2)COc2cc(O)ccc21 [Sappanone A] | 15.6% |  |
| CC1=CC(=O)C(C(C)C)=CC1=O [Thymoquinone] | 21.8% |  |
| C[C@H](CC[C@@H](O[C@@H]1O[C@H](CO)[C@@H](O)[C@H](O)[C@H]1O[C@@H]1O[C@H](CO)[C@@H](O)[C@H](O)[C@H]1O)C(C)(C)O)[C@H]1CC[C@@]2(C)[C@H]3CC=C4[C@@H](CC[C@H](O[C@@H]5O[C@H](CO[C@@H]6O[C@H](CO)[C@@H](O)[C@H](O)[C@H]6O)[C@@H](O)[C@H](O)[C@H]5O)C4(C)C)[C@]3(C)[C@H](O)C[C@]12C [Mogroside IV] | 16.7% |  |
| C[C@@H]1C[C@@H]([C@@H](O)C(C)(C)O)O[C@H]2C[C@@]3(C)C(=C12)C[C@H](O)[C@H]1[C@@]2(C)CCC(=O)C(C)(C)[C@@H]2CC[C@@]13C [Alisol F] | 20.4% |  |
| CN[C@@H]1[C@H](O)[C@H](NC)[C@H]2O[C@@]3(O)C(=O)C[C@@H](C)O[C@H]3O[C@@H]2[C@H]1O [Spectinomycin (dihydrochloride)] | 21.5% |  |
| COc1cc(/C=C/C(=O)O[C@H]2[C@H](O)[C@@H](CO)O[C@@]2(CO)O[C@H]2O[C@H](CO)[C@@H](O)[C@H](O)[C@H]2O)ccc1O [Sibiricose A5] | 29.1% |  |

Quoted at random: 4 records from the list.

| SMILES | 229E Inhibition rate | 229E Inhibition rate (229E Inhibition rate, 24 h) |
| --- | --- | --- |
| CC(C)=CCC/C(C)=C/CC/C(C)=C/CC/C=C(\C)CC/C=C(\C)CCC=C(C)C [Squalene] | 15.7% |  |
| CC(=O)Nc1ccn([C@@H]2O[C@H](COP(=O)(O)OP(=O)(O)OP(=O)(O)O)[C@@H](O)[C@H]2O)c(=O)n1 [N4-Acetylcytidine triphosphate (sodium)] | 10.2% |  |
| N[C@H]1[C@H](O[C@H]2[C@H](O)[C@@H](N)[C@H](O[C@H]3[C@H](O)[C@@H](N)[C@H](O[C@@H]([C@H](O)[C@@H](N)C=O)[C@H](O)CO)O[C@@H]3CO)O[C@@H]2CO)O[C@H](CO)[C@@H](O)[C@@H]1O [Chitotetraose (tetrahydrochloride)] | 0% |  |
| CC1(C)C=Cc2c(ccc(C(=O)/C=C/c3ccc(O)cc3)c2O)O1 [Isobavachromene] |  | 41.7% |
